{"sequences": {"note": "Amino acid sequences for entries named in this document (tags omitted). A change or cut given only in a name is not applied to a line headed by its entry.", "UniProt P11308": "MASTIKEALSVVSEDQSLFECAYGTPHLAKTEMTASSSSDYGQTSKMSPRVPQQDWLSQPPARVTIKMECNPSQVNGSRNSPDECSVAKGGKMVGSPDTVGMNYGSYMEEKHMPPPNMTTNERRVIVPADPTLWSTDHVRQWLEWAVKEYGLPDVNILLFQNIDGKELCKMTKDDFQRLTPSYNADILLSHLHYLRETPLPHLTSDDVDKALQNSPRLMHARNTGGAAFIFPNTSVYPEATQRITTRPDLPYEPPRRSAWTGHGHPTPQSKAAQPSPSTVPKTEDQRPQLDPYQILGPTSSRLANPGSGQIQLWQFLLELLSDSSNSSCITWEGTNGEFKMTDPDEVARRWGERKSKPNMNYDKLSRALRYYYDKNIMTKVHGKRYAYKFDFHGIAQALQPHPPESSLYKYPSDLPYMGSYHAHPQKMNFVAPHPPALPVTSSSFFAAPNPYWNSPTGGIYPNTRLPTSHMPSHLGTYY"}, "source": "PubChem BioAssay AID624246", "about": "(National Center for Advancing Translational Sciences (NCATS), 2012)", "note": "Screen size: about 370,000 compounds; about 100 (0.027%) were called active. The inconclusive results got no clear call from the source; some entries with a clear call stand among them for comparison. The call rests on the fitted dose curve; in most records, active means well fitted inhibition curve with a large enough effect in the polarisation, with a control signal flat; inconclusive means small, poorly fitted or top-dose-only effect, or effect the other way, or a change in a side signal; inactive means no such curve, though single readings can be large or run the other way; the % refers to the polarisation. Potencies of inconclusive entries are doubtful fits and often do not repeat. A note “side channel” means that the fit belongs to a control or component signal, not to the main read-out. Potency means the concentration at half of the fitted maximal effect."}
{"molecular_target": "Transcriptional regulator ERG (Homo sapiens) (UniProt P11308)", "test": "qHTS for Small Molecule Inhibitors of the ERG Ets/DNA interaction", "conditions": "fluorescence polarization, His-ERG Ets domain / labelled DNA; series mostly up to 76.9 µM", "description": "The Ets family of proteins is a family of ~30 conserved transcription factors defined by the presence of an ~85 amino acid domain referred to as the Ets domain, which mediates sequence-specific DNA binding to a core DNA element GGAA/T.The Ets family member ERG has been linked to several neoplasms. […] More extensive studies of the effects of over-expression of ERG in prostate cells have recently been carried out and have shown that over-expression of ERG results in increased invasion. […] We will carry out a high throughout screen to identify inhibitors of the interaction between ERG and DNA using a fluorescence polarization (FP) assay with a His-tagged ERG Ets domain and fluorescently-labeled DNA probes to develop small molecule inhibitors of this interaction as probes to test this hypothesis and lay the groundwork for the development of targeted therapies against ERG. NIH Molecular Libraries Probe Production Network [MLPCN] NIH Chemical Genomics Center [NCGC] Grant: NS066464 PI Name: John Bushweller, University of Virgina\n1.5 ul of protein solution (1 uM ERG domain in 300mM KCl, 50mM Tris-HCl, 1mM EDTA, 1mM DTT, pH 7.5); 20 nl Control plate and compound library plate; 1.5 ul mixture of 5 nM Fluorescein-DNA and 100nM Texas-615-DNA solution in same buffer as above solution; measure fluorescence polarization sequentially for fluorescein (Excitation = 480 nm, Emission = 535s, 535p nm) and Texas red (Excitation = 555 nm, Emission = 632s, 632p nm)."}
{"smiles": "CC1(C(=O)O)CCC(C(N)=O)C1(C)C", "note": "(stereo not drawn)", "Potency": "inconclusive: 1 µM [inhibitor, partial curve, poor fit]"}
{"smiles": "Cc1ccnc(Nc2nc3ccccc3o2)n1", "Potency": "inactive"}
{"smiles": "CCc1ccc(NC(=O)c2ccc(Cn3nc(N4CCN(c5ccccc5)CC4)ccc3=O)o2)cc1", "Potency": "inactive"}
{"smiles": "CC(=O)Nc1ccc(NC(=O)C(C)OC(=O)C2CCN(S(=O)(=O)c3ccc4c(c3)OCCO4)CC2)cc1", "note": "(stereo not drawn)", "Potency": "inconclusive: 31.6 µM [inhibitor, single point]"}
{"smiles": "C/C(=N\\NC(=S)NC(C)C)c1ccccc1OC(F)F", "Potency": "inactive"}
{"smiles": "COc1cc(/C=N/NS(=O)(=O)c2ccc3ccccc3c2)ccc1OCc1ccc(C(=O)O)cc1", "Potency": "inconclusive: 7.08 µM [inhibitor, single point]"}
{"smiles": "O=C(CSC(=S)N1CCCCC1)Nc1ncc2c(n1)CCCC2=O", "Potency": "inconclusive: 28.2 µM [inhibitor, partial curve, poor fit]"}
{"smiles": "CCOC(=O)c1sc(NC(=O)C(C)Oc2ccc(OC)cc2)c(C(=O)OCC)c1C", "note": "(stereo not drawn)", "Potency": "inactive"}
{"smiles": "O=[N+]([O-])c1ncccc1OCc1ccc(Cl)c(Cl)c1", "Potency": "inconclusive: 50.1 µM [inhibitor, single point]"}
{"smiles": "COc1ccc(-c2n(CC(=O)OC3CC(C)CCC3C(C)C)c3ccccc3[n+]2C)cc1", "note": "(stereo not drawn)", "Potency": "inconclusive: 31.6 µM [inhibitor, partial curve, poor fit]"}
{"smiles": "COc1ccc(C(=O)NCc2ccc3c(c2)cc(C)n3C)cc1", "Potency": "active: 31.6 µM"}
{"smiles": "COc1ccc(OC)c(NC(=O)c2cn3c4c(ccc(Cl)c4c2=O)OC(C)C3)c1", "note": "(stereo not drawn)", "Potency": "inconclusive: 100 µM [inhibitor, single point]"}
{"smiles": "CSCC(=O)N1CCCC(C(=O)c2cc(F)ccc2F)C1", "note": "(stereo not drawn)", "Potency": "inconclusive: 1 µM [quencher, side channel, full curve, poor fit]"}
{"smiles": "Cn1c(=O)c(N)c2c3c(c(Br)ccc31)C(=O)c1ccccc1-2", "Potency": "inconclusive: 31.6 µM [inhibitor, single point]"}
{"smiles": "CC(=O)c1ccc(S(=O)(=O)NCCC(=O)NCCc2c[nH]c3ccccc23)cc1", "Potency": "inactive"}
{"smiles": "COc1ccc(C(=O)Nc2ccc(-c3cc4ccccc4oc3=O)c(C)c2)cc1Br", "Potency": "inconclusive: 7.08 µM [quencher, side channel, partial curve, poor fit]"}
{"smiles": "COc1ccc(CNC(=O)CN2C(=O)NC3(CCCCCC3)C2=O)cc1OC", "Potency": "inconclusive: 3.55 µM [inhibitor, partial curve, poor fit]"}
{"smiles": "CC(=O)c1cccc(NC(=O)CCc2c(C)nc3c(-c4ccc(F)cc4)c(C)nn3c2C)c1", "Potency": "inconclusive: 39.8 µM [quencher, side channel, single point]"}
{"smiles": "O=C(Cc1csc(-c2ccccc2)n1)NCc1ccc(F)cc1", "Potency": "inconclusive: 50.1 µM [inhibitor, single point]"}
{"smiles": "CCOc1cc(/C=C2\\NC(=S)N(C)C2=O)ccc1OCc1ccc(C(=O)O)cc1", "Potency": "inactive"}
{"smiles": "Cc1cc(C)c(S(=O)(=O)NCc2ccc3c(c2)cc(C)n3C)c(C)c1", "Potency": "inconclusive: 31.6 µM [inhibitor, partial curve, poor fit]"}
{"smiles": "O=C(OCC(=O)N1CCN(c2ccccc2)CC1)c1cccc([N+](=O)[O-])c1", "Potency": "inconclusive: 50.1 µM [inhibitor, single point]"}
{"smiles": "Cc1ccc(OCCn2c(COc3ccc(Cl)cc3)nc3ccccc32)cc1", "Potency": "inconclusive: 4.47 µM [quencher, side channel, full curve, poor fit]"}
{"smiles": "N#CC12COC3(CCCCC3C1(C#N)C#N)OC2=N", "note": "(stereo not drawn)", "Potency": "inconclusive: 44.7 µM [inhibitor, single point]"}
{"smiles": "CCN(C(=O)COC(=O)CSc1ccc(C)cc1C)c1c(N)n(Cc2ccccc2)c(=O)[nH]c1=O", "Potency": "inconclusive: 56.2 µM [inhibitor, single point]"}
{"smiles": "COc1cccc(CN2CCN(S(=O)(=O)c3ccc(NC(C)=O)cc3)CC2)c1OC", "Potency": "inconclusive: 11.2 µM [inhibitor, single point]"}
{"smiles": "COc1ccc(-c2cc3nc(C)c(CCC(=O)N4CCN(c5cccc(Cl)c5)CC4)c(C)n3n2)c(OC)c1", "Potency": "inconclusive: 7.94 µM [quencher, side channel, full curve, poor fit]"}
{"smiles": "CC1CCN(c2ccc(/C=N/n3nnnc3N)cc2[N+](=O)[O-])CC1", "Potency": "inconclusive: 11.2 µM [inhibitor, partial curve, poor fit]"}
{"smiles": "OC(Cn1cnnc1)c1ccccc1", "note": "(stereo not drawn)", "Potency": "inconclusive: 6.31 µM [inhibitor, partial curve, poor fit]"}
{"smiles": "O=C(Nc1ccccc1)Nc1ncc([N+](=O)[O-])s1", "Potency": "inconclusive: 6.31 µM [inhibitor, single point]"}
{"smiles": "O=C(CSCc1ccccc1)Nc1ccc(F)cc1F", "Potency": "inactive"}
{"smiles": "O=C1C(=O)c2ccccc2C(O)=C1C1CCC(c2ccc(Cl)cc2)CC1", "note": "(stereo not drawn)", "Potency": "inconclusive: 5.01 µM [inhibitor, single point]"}
{"smiles": "COc1cccc2c1C(=O)c1c(O)c3c(c(O)c1C2=O)CC(O)(C(=O)CO)CC3OC1CC(N(C)C)C(O)C(C)O1", "note": "(stereo not drawn)", "Potency": "inconclusive: 3.55 µM [inhibitor, partial curve, poor fit]"}
{"smiles": "CCCn1c(=O)c(C(=O)NNS(=O)(=O)c2ccc(C)cc2)c(O)c2ccccc21", "Potency": "inconclusive: 3.55 µM [inhibitor, partial curve, poor fit]"}
{"smiles": "CCCCn1c(SCc2nc(N)nc(Nc3ccccc3C)n2)nc2ccccc2c1=O", "Potency": "inactive"}
{"smiles": "Clc1ccc(-c2cc3ccccc3nc2N2CCOCC2)cc1", "Potency": "inconclusive: 8.91 µM [inhibitor, partial curve, poor fit]"}
{"smiles": "CC1(C)CC(=O)C/C(=N\\NC(=O)C2CC2c2ccccc2)C1", "note": "(stereo not drawn)", "Potency": "inactive"}
{"smiles": "Cc1ccsc1/C=N/NC(=O)c1ccc2ccccc2c1", "Potency": "inactive"}
{"smiles": "CC1CN(C(=O)c2cccc(COc3ccccc3Cl)c2)CC(C)O1", "note": "(stereo not drawn)", "Potency": "inactive"}
{"smiles": "Cc1ccc(NC(=O)c2cc(NC(=O)CCCC(=O)O)ccc2Cl)cc1Cl", "Potency": "inconclusive: 28.2 µM [quencher, side channel, partial curve, poor fit]"}
{"smiles": "Cn1c(=O)c2c(nc(SCC(=O)Nc3ccc(OC(F)(F)F)cc3)n2Cc2cccc(C(F)(F)F)c2)n(C)c1=O", "Potency": "inconclusive: 35.5 µM [quencher, side channel, single point]"}
{"smiles": "CCCc1cc(=O)[nH]c(SCC(=O)Nc2ccc3ccccc3c2)n1", "Potency": "inconclusive: 14.1 µM [inhibitor, partial curve, poor fit]"}
{"smiles": "O=C(NCc1ccc(Cl)cc1)c1ccc(CNc2c(N3CCOCC3)c(=O)c2=O)cc1", "Potency": "inconclusive: 2.82 µM [inhibitor, partial curve, poor fit]"}
{"smiles": "CC(=O)Nc1nonc1NC(=O)COc1ccccc1", "Potency": "inconclusive: 2.51 µM [quencher, side channel, full curve, poor fit]"}
{"smiles": "O=C(NCCc1ccc(Cl)cc1)C1CCCN1C(=O)Nc1ccccc1", "note": "(stereo not drawn)", "Potency": "inconclusive: 35.5 µM [inhibitor, single point]"}
{"smiles": "CCc1ccccc1N1CC(c2nc3ccccc3n2CCCCOc2ccccc2OC)CC1=O", "note": "(stereo not drawn)", "Potency": "inactive"}
{"smiles": "Cc1cc(C=C2C(=O)c3ccccc3C2=O)c(C)n1-c1ccc(Cl)cc1", "Potency": "inactive"}
{"smiles": "COc1ccccc1N1CCN(CC(=O)c2c(C)n(C)c3ccccc23)CC1", "Potency": "inconclusive: 50.1 µM [quencher, side channel, partial curve, poor fit]"}
{"smiles": "Cn1ccc(C(=O)OCC(=O)Nc2ccccc2)n1", "Potency": "inconclusive: 11.2 µM [inhibitor, single point]"}
{"smiles": "CCCCOc1cc(CC2CNC(=O)N2)ccc1OC", "note": "(stereo not drawn)", "Potency": "inconclusive: 31.6 µM [inhibitor, single point]"}
{"smiles": "COc1cc(/C=C(/C#N)c2nc3ccccc3c(=O)[nH]2)ccc1O", "Potency": "inconclusive: 28.2 µM [fluorescent, side channel, partial curve]"}
{"smiles": "O=C(Nc1ccc2c(c1)Cc1ccccc1-2)c1ccncc1", "Potency": "inconclusive: 22.4 µM [inhibitor, single point]"}
{"smiles": "Cc1ccc(CNC(=O)COc2ccc(S(=O)(=O)N3CCCC3)cc2)cc1", "Potency": "inconclusive: 11.2 µM [inhibitor, single point]"}
{"smiles": "COc1ccc(OC)c(NS(=O)(=O)c2cc3c4c(c2)CCN4C(=O)CC3)c1", "Potency": "inconclusive: 14.1 µM [inhibitor, full curve, poor fit]"}
{"smiles": "O=C(c1cccc(C(=O)N(c2ccccn2)C2CCCCC2)c1)N(c1ccccn1)C1CCCCC1", "Potency": "inconclusive: 50.1 µM [inhibitor, single point]"}
{"smiles": "Cc1[nH]c(=O)[nH]c(=O)c1/C=N/NC(=O)[C@H](C)N", "Potency": "inconclusive: 31.6 µM [inhibitor, single point]"}
{"smiles": "COCCNc1oc(-c2ccc(Cl)cc2)nc1C#N", "Potency": "inactive"}
{"smiles": "Cc1[nH]c(-c2ccc(F)cc2)cc1C(=O)N1CCN(c2ccccc2F)CC1", "Potency": "inconclusive: 35.5 µM [inhibitor, partial curve, poor fit]"}
{"smiles": "Cc1cc(S(=O)(=O)N2CCN(c3ccccc3C)CC2)ccc1F", "Potency": "inconclusive: 50.1 µM [fluorescent, side channel, single point]"}
{"smiles": "Cc1cc(C)nc(NC(=O)c2ccc(Cl)cc2Cl)n1", "Potency": "inconclusive: 50.1 µM [inhibitor, single point]"}
{"smiles": "CCOC(=O)C1=NN(C(=O)COc2ccccc2)C(O)(c2ccc(Cl)cc2)C1", "note": "(stereo not drawn)", "Potency": "inconclusive: 56.2 µM [inhibitor, single point]"}
{"smiles": "CCCC1=C/C(=C/c2ccc(-c3ccccc3OC)o2)C(=O)O1", "Potency": "inactive"}
{"smiles": "COc1ccc(/C=N/Nc2ccccn2)cc1OC", "Potency": "inactive"}
